Data from PMC5862959.
Like-named read-outs stand apart in the source and are kept apart here. Results are given in words; binding and its absence hold for the method and conditions named. Binding seen in cells or lysates may run through a third protein. Some entries that bind do so weakly or less than the wild type. One block for each molecule: values may come before it.

Chains of the proteins cited; added tags and fusions are not shown.
UniProt P15976: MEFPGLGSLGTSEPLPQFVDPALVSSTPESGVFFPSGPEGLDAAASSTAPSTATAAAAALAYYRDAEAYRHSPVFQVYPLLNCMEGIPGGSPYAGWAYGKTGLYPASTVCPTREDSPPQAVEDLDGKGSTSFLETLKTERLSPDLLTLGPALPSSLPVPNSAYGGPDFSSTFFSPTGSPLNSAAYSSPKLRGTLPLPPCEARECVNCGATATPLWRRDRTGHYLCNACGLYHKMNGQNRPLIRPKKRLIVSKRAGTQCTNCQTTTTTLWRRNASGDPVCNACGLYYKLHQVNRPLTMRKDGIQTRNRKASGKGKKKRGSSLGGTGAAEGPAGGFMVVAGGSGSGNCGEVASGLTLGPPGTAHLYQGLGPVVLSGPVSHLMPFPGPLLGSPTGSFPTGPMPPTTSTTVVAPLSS

Legend:
[1] = target: hnRNPK (human (endogenous in OCI-M2, SC, M2AR)) (UniProt P61978); experiment: co-IP; endogenous proteins of 5-AZA-resistant M2AR cells; IP with antibodies against hnRNPK, RNA-pol-II CTD-S2P or BRD4 and western blot; cells untreated or treated with 5-AZA or JQ1
[2] = target: hnRNPK (human (endogenous in OCI-M2, SC, M2AR)) (UniProt P61978); experiment: condition: only cells treated with 5-AZA (within 10 min); co-IP; endogenous proteins of 5-AZA-resistant M2AR cells treated with 5-AZA
[3] = target: GATA1 (human (endogenous in OCI-M2, M2AR)) (UniProt P15976); experiment: co-IP; endogenous proteins of OCI-M2 cells (5-AZA-sensitive); IP with antibodies (GATA1, SPI1/PU.1, hnRNPK, RNA-pol-II CTD-S2P) and western blot; cells untreated or treated with 1 μM 5-AZA for various times
[4] = target: hnRNPK (human (endogenous in OCI-M2, SC, M2AR)) (UniProt P61978); experiment: condition: only cells treated with 1 μM 5-AZA (10–20 min); co-IP; endogenous proteins of OCI-M2 cells treated with 1 μM 5-AZA at various time points
[5] = target: hnRNPK (human (endogenous in OCI-M2, SC, M2AR)) (UniProt P61978); experiment: co-IP; endogenous proteins of OCI-M2 cells (5-AZA-sensitive); IP with antibodies (GATA1, SPI1/PU.1, hnRNPK, RNA-pol-II CTD-S2P) and western blot; cells untreated or treated with 1 μM 5-AZA for various times
[6] = target: hnRNPK (human (endogenous in OCI-M2, SC, M2AR)) (UniProt P61978); experiment: co-IP; RNase digestion-coupled IP and co-IP, endogenous proteins of OCI-M2 cells; increasing doses of RNase
[7] = target: GATA1 (human (endogenous in OCI-M2, M2AR)) (UniProt P15976); experiment: co-IP; endogenous proteins of OCI-M2 cells (5-AZA-sensitive); IP with antibodies (GATA1, SPI1/PU.1, hnRNPK, RNA-pol-II CTD-S2P) and western blot; cells untreated or treated with 1 μM 5-AZA for various times; remark: listed apart in the source

Molecule: GATA1 (from UniProt P15976 1-413)
binding [1]: binds
binding [2]: no binding

Molecule: CDK9/P-TEFb (from UniProt P50750 1-372) (enzyme)
binding [4]: no binding

B2: DNMT2 (enzyme, UniProt O14717 1-391)
chain: MEPLRVLELYSGVGGMHHALRESCIPAQVVAAIDVNTVANEVYKYNFPHTQLLAKTIEGITLEEFDRLSFDMILMSPPCQPFTRIGRQGDMTDSRTNSFLHILDILPRLQKLPKYILLENVKGFEVSSTRDLLIQTIENCGFQYQEFLLSPTSLGIPNSRLRYFLIAKLQSEPLPFQAPGQVLMEFPKIESVHPQKYAMDVENKIQEKNVEPNISFDGSIQCSGKDAILFKLETAEEIHRKNQQDSDLSVKMLKDFLEDDTDVNQYLLPPKSLLRYALLLDIVQPTCRRSVCFTKGYGSYIEGTGSVLQTAEDVQVENIYKSLTNLSQEEQITKLLILKLRYFTPKEIANLLGFPPEFGFPEKITVKQRYRLLGNSLNVHVVAKLIKILYE
binding [5]: binds
binding [6]: binds

B4: NSUN1 (enzyme, UniProt P46087 1-812)
chain: MGRKLDPTKEKRGPGRKARKQKGAETELVRFLPAVSDENSKRLSSRARKRAAKRRLGSVEAPKTNKSPEAKPLPGKLPKGISAGAVQTAGKKGPQSLFNAPRGKKRPAPGSDEEEEEEDSEEDGMVNHGDLWGSEDDADTVDDYGADSNSEDEEEGEALLPIERAARKQKAREAAAGIQWSEEETEDEEEEKEVTPESGPPKVEEADGGLQINVDEEPFVLPPAGEMEQDAQAPDLQRVHKRIQDIVGILRDFGAQREEGRSRSEYLNRLKKDLAIYYSYGDFLLGKLMDLFPLSELVEFLEANEVPRPVTLRTNTLKTRRRDLAQALINRGVNLDPLGKWSKTGLVVYDSSVPIGATPEYLAGHYMLQGASSMLPVMALAPQEHERILDMCCAPGGKTSYMAQLMKNTGVILANDANAERLKSVVGNLHRLGVTNTIISHYDGRQFPKVVGGFDRVLLDAPCSGTGVISKDPAVKTNKDEKDILRCAHLQKELLLSAIDSVNATSKTGGYLVYCTCSITVEENEWVVDYALKKRNVRLVPTGLDFGQEGFTRFRERRFHPSLRSTRRFYPHTHNMDGFFIAKFKKFSNSIPQSQTGNSETATPTNVDLPQVIPKSENSSQPAKKAKGAAKTKQQLQKQQHPKKASFQKLNGISKGADSELSTVPSVTKTQASSSFQDSSQPAGKAEGIREPKVTGKLKQRSPKLQSSKKVAFLRQNAPPKGTDTQTPAVLSPSKTQATLKPKDHHQPLGRAKGVEKQQLPEQPFEKAAFQKQNDTPKGPQPPTVSPIRSSRPPPAKRKKSQSRGNSQLLLS
binding [6]: no binding

The remaining lines, values ahead:

binding [3]: binds
Molecule: hnRNPK (from UniProt P61978 1-463)

binding [5]: binds
binding [6]: binds
B1: NSUN3 (enzyme, UniProt Q9H649 1-340)
chain: MLTQLKAKSEGKLAKQICKVVLDHFEKQYSKELGDAWNTVREILTSPSCWQYAVLLNRFNYPFELEKDLHLKGYHTLSQGSLPNYPKSVKCYLSRTPGRIPSERHQIGNLKKYYLLNAASLLPVLALELRDGEKVLDLCAAPGGKSIALLQCACPGYLHCNEYDSLRLRWLRQTLESFIPQPLINVIKVSELDGRKMGDAQPEMFDKVLVDAPCSNDRSWLFSSDSQKASCRISQRRNLPLLQIELLRSAIKALRPGGILVYSTCTLSKAENQDVISEILNSHGNIMPMDIKGIARTCSHDFTFAPTGQECGLLVIPDKGKAWGPMYVAKLKKSWSTGKW

binding [7]: no binding
B3: hnRNP A0 (protein, UniProt Q13151 1-305)
chain: MENSQLCKLFIGGLNVQTSESGLRGHFEAFGTLTDCVVVVNPQTKRSRCFGFVTYSNVEEADAAMAASPHAVDGNTVELKRAVSREDSARPGAHAKVKKLFVGGLKGDVAEGDLIEHFSQFGTVEKAEIIADKQSGKKRGFGFVYFQNHDAADKAAVVKFHPIQGHRVEVKKAVPKEDIYSGGGGGGSRSSRGGRGGRGRGGGRDQNGLSKGGGGGYNSYGGYGGGGGGGYNAYGGGGGGSSYGGSDYGNGFGGFGSYSQHQSSYGPMKSGGGGGGGGSSWGGRSNSGPYRGGYGGGGGYGGSSF
